Laboratory results: PubChem BioAssay AID504791 (Drosophila RNAi Screening Center, 2011)
The deposit covers about 23,000 reagents; shown is a random part of those that have a named target and a result. Of all reagents, 199 (0.86%) were called active. 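Plate-scaled ratios behind the calls are not deposited; printed light signals are raw; many rows marked increased or decreased are still called inactive.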 A number with no mark means an inactive call. Names joined by + are all predicted targets of the reagent. No sequences are given here. Not given: the direction of the score.

Screen: 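Factors in Argonaute-based small RNA production and activity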 (primary screen)
System: Drosophila S2-derived reporter cells
Reagents: long dsRNA against Drosophila genes, about 150-250 ng dsRNA per well (siRNA assay); about 80-120 ng (miRNA assay)
Time to read-out: about 5 days (siRNA assay); about 4 days (miRNA assay)
Treatment: copper sulfate induction of reporters: 25 µM (siRNA assay); 200 mM stated (miRNA assay), 1-2 days before reading
Measurement: 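Per-well ratio of Renilla over firefly light, expressed relative to that plate's average ratio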
Hit rule: 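First-pass picks had plate-scaled ratios over 1.5 for the siRNA assay, over 1.6 for the miRNA assay, or under 0.6; two distinct dsRNAs had to score alike on retest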

CG32832 [DRSC01562] → stable assay Renilla, run 1 (luminescence) = 4787; stable assay firefly, run 1 (luminescence) = 2.99e5
Obp69a (Odorant-binding protein 69a) [DRSC11247] → stable assay Renilla, run 1 (luminescence) = 6834; stable assay firefly, run 1 (luminescence) = 4.55e5
mtt (mangetout) [DRSC05106] → stable assay Renilla, run 1 (luminescence) = 4472; stable assay firefly, run 1 (luminescence) = 3.24e5
mtt (mangetout) [DRSC05107] → stable assay Renilla, run 1 (luminescence) = 5226; stable assay firefly, run 1 (luminescence) = 4.36e5
mtt (mangetout) [DRSC06753] → stable assay Renilla, run 1 (luminescence) = 6267; stable assay firefly, run 1 (luminescence) = 3.27e5
mtt (mangetout) [DRSC07235] → stable assay Renilla, run 1 (luminescence) = 6303; stable assay firefly, run 1 (luminescence) = 4.09e5
CG18853 [DRSC06795] → stable assay Renilla, run 1 (luminescence) = 6551; stable assay firefly, run 1 (luminescence) = 5.08e5
CG13581 [DRSC04216] → stable assay Renilla, run 1 (luminescence) = 5891; stable assay firefly, run 1 (luminescence) = 3.32e5
CG34326 (retired record) [DRSC19165] → stable assay Renilla, run 1 (luminescence) = 5115; stable assay firefly, run 1 (luminescence) = 3.73e5
Fancd2 [DRSC15208] → stable assay Renilla, run 1 (luminescence) = 6998; stable assay firefly, run 1 (luminescence) = 3.38e5
Fancd2 [DRSC22763] → stable assay Renilla, run 1 (luminescence) = 3723; stable assay firefly, run 1 (luminescence) = 3.72e5
l(2)05714 (lethal (2) 05714) [DRSC03118] → stable assay Renilla, run 1 (luminescence) = 12554; stable assay firefly, run 1 (luminescence) = 4.89e5
Pi3K68D (Phosphatidylinositol 3-kinase 68D) [DRSC11253] → stable assay Renilla, run 1 (luminescence) = 6119; stable assay firefly, run 1 (luminescence) = 4.68e5
CG17187 [DRSC15181] → stable assay Renilla, run 1 (luminescence) = 5758; stable assay firefly, run 1 (luminescence) = 3.71e5
CG5742 [DRSC06949] → stable assay Renilla, run 1 (luminescence) = 7574; stable assay firefly, run 1 (luminescence) = 2.75e5
Gyg (Glycogenin) [DRSC03850] → stable assay Renilla, run 1 (luminescence) = 4607; stable assay firefly, run 1 (luminescence) = 3.78e5
Gyg (Glycogenin) [DRSC04556] → stable assay Renilla, run 1 (luminescence) = 6196; stable assay firefly, run 1 (luminescence) = 4.42e5
CG3226 [DRSC18296] → stable siRNA reporter change = reporter ratio lowered past the hit cutoff; stable assay Renilla, run 1 (luminescence) = 5467; stable assay firefly, run 1 (luminescence) = 5.21e5
CG7741 [DRSC07035] → stable assay Renilla, run 1 (luminescence) = 5971; stable assay firefly, run 1 (luminescence) = 4.18e5
lncRNA:CR32661 (long non-coding RNA:CR32661) [DRSC19794] → stable assay Renilla, run 1 (luminescence) = 4690; stable assay firefly, run 1 (luminescence) = 3.41e5
Madm (MLF1-adaptor molecule) [DRSC12129] → stable assay Renilla, run 1 (luminescence) = 7258; stable assay firefly, run 1 (luminescence) = 4.22e5
Cyp28a5 (Cytochrome P450 28a5) [DRSC03297] → stable assay Renilla, run 1 (luminescence) = 8615; stable assay firefly, run 1 (luminescence) = 1.92e6
Gad1 (Glutamic acid decarboxylase 1) [DRSC08661] → stable assay Renilla, run 1 (luminescence) = 8210; stable assay firefly, run 1 (luminescence) = 5.14e5
CG15198 [DRSC19645] → stable assay Renilla, run 1 (luminescence) = 5391; stable assay firefly, run 1 (luminescence) = 4.87e5
Sur-8 [DRSC15794] → stable assay Renilla, run 1 (luminescence) = 6264; stable assay firefly, run 1 (luminescence) = 3.66e5
CG7202 [DRSC11818] → stable assay Renilla, run 1 (luminescence) = 6742; stable assay firefly, run 1 (luminescence) = 4.37e5
Taf8 (TBP-associated factor 8) [DRSC20363] → stable assay Renilla, run 1 (luminescence) = 5559; stable assay firefly, run 1 (luminescence) = 6.08e5
CG12655 [DRSC20678] → miRNA reporter change = reporter ratio raised past the hit cutoff; stable assay Renilla, run 1 (luminescence) = 5275; stable assay firefly, run 1 (luminescence) = 3.81e5
fliI (flightless I) [DRSC20578] → stable assay Renilla, run 1 (luminescence) = 4772; stable assay firefly, run 1 (luminescence) = 3.73e5
CG3528 [DRSC00611] → stable assay Renilla, run 1 (luminescence) = 8900; stable assay firefly, run 1 (luminescence) = 3.72e5
CG3528 [DRSC26034] → miRNA reporter change = reporter ratio raised past the hit cutoff
Cpr57A + Obp57d [DRSC06708] → stable assay Renilla, run 1 (luminescence) = 10935; stable assay firefly, run 1 (luminescence) = 4.11e5
Cpr57A + Obp57d [DRSC22719] → stable assay Renilla, run 1 (luminescence) = 3983; stable assay firefly, run 1 (luminescence) = 3.80e5
CG8478 [DRSC16427] → stable assay Renilla, run 1 (luminescence) = 5862; stable assay firefly, run 1 (luminescence) = 4.04e5
CG33964 + CG13175 [DRSC06300] → stable assay Renilla, run 1 (luminescence) = 6411; stable assay firefly, run 1 (luminescence) = 3.67e5
CG33964 + CG13175 [DRSC06301] → stable assay Renilla, run 1 (luminescence) = 6172; stable assay firefly, run 1 (luminescence) = 3.43e5
CG33964 + CG13175 [DRSC07184] → stable assay Renilla, run 1 (luminescence) = 6334; stable assay firefly, run 1 (luminescence) = 4.01e5

Part of the list above, reformatted.
Target gene | dsRNA | stable siRNA reporter change | miRNA reporter change | stable assay Renilla, run 1 (luminescence) | stable assay firefly, run 1 (luminescence)
Cpr57A + Obp57d | DRSC22719 | – | – | 3983 | 3.80e5
CG8478 | DRSC16427 | – | – | 5862 | 4.04e5
